PubChem BioAssay AID1159584 – Peter MacCallum Cancer Centre | 2016
Shown is a random part of about 18,000 deposited reagents. Further read-outs or replicates are left out here. The record does not give: the amount of reagent, the time to read-out.

- Purpose: 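Knock-downs that harm CDH1-null cells more than parental MCF10A cells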 (primary screen)
- Cell system: human MCF10A breast epithelial cells, parental and CDH1-null
- Reagents: siRNA against human genes
- Measured: 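Cell viability by CellTiter-Glo ATP luminescence, each line scaled to the mean of mock wells across plates, then CDH1-null over parental ratio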
- Reading the numbers: CDH1-null / parental viability ratio: higher = CDH1-null cells survive relatively better than parental

gene	PubChem SID	CDH1-null / parental viability ratio
SLC36A1	SID134312596	1.5
CEPT1 (choline/ethanolamine phosphotransferase 1)	SID152151906	1.02
LAMP1 (lysosome associated membrane protein 1)	SID135622540	0.77
CKAP2L (cytoskeleton associated protein 2L)	SID134322679	0.97
DDI1 (DDI proteasomal shuttling factor 1)	SID152147968	0.93
PARP11 (poly(ADP-ribose) polymerase family member 11)	SID152151961	1.03
LIPJ (lipase family member J)	SID152149176	1.11
CLRN1 (clarin 1)	SID134325020	0.98
PCBD2 (pterin-4 alpha-carbinolamine dehydratase 2)	SID152156145	1.02
DAZ4 (deleted in azoospermia 4)	SID152156010	1.24
GPR18 (G protein-coupled receptor 18)	SID135621024	0.79
PDX1 (pancreatic and duodenal homeobox 1)	SID152151053	0.94
COL13A1 (collagen type XIII alpha 1 chain)	SID134317156	1.2
SEC24C (SEC24 homolog C, COPII component)	SID135621572	1.07
TMEM64 (transmembrane protein 64)	SID135624522	0.96
FRAT1 (FRAT regulator of Wnt signaling pathway 1)	SID134316334	0.84
COMMD6 (COMM domain containing 6)	SID152154223	0.77
INSR (insulin receptor)	SID152149459	0.92
SVOP (SV2 related protein)	SID135621351	0.83
RASSF5 (Ras association domain family member 5)	SID152154861	1.12
SNX20 (sorting nexin 20)	SID152147899	0.92
MRPS27 (mitochondrial ribosomal protein S27)	SID134317153	0.85
MTDH (metadherin)	SID134322382	1.01
AZIN2 (antizyme inhibitor 2)	SID135621558	1.03
PUM2 (pumilio RNA binding family member 2)	SID134318219	1.02
KRT222 (keratin 222)	SID152147790	1.13
AZIN1 (antizyme inhibitor 1)	SID152153443	1.26
U2AF2 (U2 small nuclear RNA auxiliary factor 2)	SID135622309	1.32
CD19 (CD19 molecule)	SID152149327	0.7
BTN3A1 (butyrophilin subfamily 3 member A1)	SID135623680	0.92
MAP3K20 (mitogen-activated protein kinase kinase kinase 20)	SID152152597	0.86
TMEM205 (transmembrane protein 205)	SID135625161	0.91
MIOS (meiosis regulator for oocyte development)	SID152156318	0.87
RCE1 (Ras converting CAAX endopeptidase 1)	SID135621123	1.07
ERMAP	SID152152521	0.91
TRPM3	SID134311838	1.64
CD300LB (CD300 molecule like family member b)	SID152153421	1.07
GNGT1 (G protein subunit gamma transducin 1)	SID135622372	0.87
LEF1 (lymphoid enhancer binding factor 1)	SID134319441	1.15
RNF169 (ring finger protein 169)	SID152154801	0.79
EIF4A3 (eukaryotic translation initiation factor 4A3)	SID134324407	1.15
GPR141 (G protein-coupled receptor 141)	SID134310987	0.78
SERGEF (secretion regulating guanine nucleotide exchange factor)	SID134323723	1.24
LEFTY1 (left-right determination factor 1)	SID134317349	1.03
ZNF136 (zinc finger protein 136)	SID134311902	0.96
TATDN1 (TatD DNase domain containing 1)	SID152146933	1.12
PSCA (prostate stem cell antigen)	SID152156085	1.42
ZNF213 (zinc finger protein 213)	SID135621784	1
CHMP4B (charged multivesicular body protein 4B)	SID134321965	0.76
PSMC6 (proteasome 26S subunit, ATPase 6)	SID134314301	0.75
MTARC1 (mitochondrial amidoxime reducing component 1)	SID134323155	1.16
NMBR (neuromedin B receptor)	SID135620723	0.85
TRMT5 (tRNA methyltransferase 5)	SID152154005	0.82
CNOT8 (CCR4-NOT transcription complex subunit 8)	SID134322632	1.13
C8orf33 (chromosome 8 open reading frame 33)	SID152147692	0.83
MARK3 (microtubule affinity regulating kinase 3)	SID56478669	0.93
PRRG4 (proline rich and Gla domain 4)	SID152148527	1.08
SACS (sacsin molecular chaperone)	SID135624012	1.07
LNX2 (ligand of numb-protein X 2)	SID152156696	0.79
DAZ1 (deleted in azoospermia 1)	SID152155812	0.94
KISS1 (KiSS-1 metastasis suppressor)	SID135622101	1.27
ANKRD53 (ankyrin repeat domain 53)	SID134318661	0.78
SMARCD3 (SWI/SNF related BAF chromatin remodeling complex subunit D3)	SID152150386	1.04
ARMC8 (armadillo repeat containing 8)	SID134322709	0.85
AHSA1 (activator of HSP90 ATPase activity 1)	SID135623896	1.02
COMT (catechol-O-methyltransferase)	SID152155934	0.94
ALAS1 (5'-aminolevulinate synthase 1)	SID134314040	1.11
C16orf90 (chromosome 16 open reading frame 90)	SID135625507	1.27

Targets above whose target name starts with P or p (7):
gene	PubChem SID	CDH1-null / parental viability ratio
PARP11 (poly(ADP-ribose) polymerase family member 11)	SID152151961	1.03
PCBD2 (pterin-4 alpha-carbinolamine dehydratase 2)	SID152156145	1.02
PDX1 (pancreatic and duodenal homeobox 1)	SID152151053	0.94
PUM2 (pumilio RNA binding family member 2)	SID134318219	1.02
PSCA (prostate stem cell antigen)	SID152156085	1.42
PSMC6 (proteasome 26S subunit, ATPase 6)	SID134314301	0.75
PRRG4 (proline rich and Gla domain 4)	SID152148527	1.08
